Some of these results come from one statement about several compounds together.
Test system: C. albicans SC5314
Format: cell-based
Method: 1×RPMI-1640 Buffered with Citrate Phosphate Buffer
Citrate phosphate buffer was prepared by mixing 0.1 M citric acid and 0.2 M dibasic sodium phosphate dodecahydrate in the proportions indicated in the Table 2 and the volume adjusted to 90 ml with dH2O.
pH buffered medium was prepared by dissolving 1.04 g RPMI-1640 premix powder in 10 ml citrate phosphate buffer. The volume was then adjusted to 40 ml with dH2O and the pH adjusted by addition of the acid or base. The volume was adjusted to 50 ml with dH2O. The medium was then filter sterilized by vacuum filtration through a 0.2 μm filter and stored at 4° C. and kept for up to 2 weeks.
The pH of RPMI-1640 was altered, using citrate phosphate buffer, to reflect the more acidic pH environment in the oral cavity. NP319 and NP377 were active against C. albicans SC5314 from pH 5.5-7.0 (Table 2). For all AMPs tested the optimum pH for activity was pH 5.5. NP377 maintained activity at 2 μg/ml from pH 5.5-7 with reduced activity at pH 5.

SMILES: N=C(N)NCCC[C@@H](N)C(=O)N[C@H](CCCNC(=N)N)C(=O)N[C@H](CCCNC(=N)N)C(=O)N[C@H](CCCNC(=N)N)C(=O)N[C@H](CCCNC(=N)N)C(=O)N[C@H](CCCNC(=N)N)C(=O)N[C@H](CCCNC(=N)N)C(=O)N[C@H](CCCNC(=N)N)C(=O)N[C@H](CCCNC(=N)N)C(=O)N[C@H](CCCNC(=N)N)C(=O)N[C@H](CCCNC(=N)N)C(=O)N[C@H](CCCNC(=N)N)C(=O)N[C@H](CCCNC(=N)N)C(=O)N[C@H](Cc1c[nH]cn1)C(=O)N[C@H](Cc1c[nH]cn1)C(N)=O [NP377, dRdRdRdRdRdRdRdRdRdRdRdRdRdHdH-CONH]
- optimum pH for activity: 5.5-6.5
- pH range with activity against C. albicans SC5314: 5.5-7.0
